Among the data in doi:10.1101/2021.08.26.457804 are binding values, retold here.

Results are given in words; binding and its absence hold for the method and conditions named. Binding seen in cells or lysates may run through a third protein. Some results given as binding are weak or reduced against the parent protein; the word gives no strength. Sequences can lack the tags named with a protein.

In the assay the target is T1, Myc-CASP4^C258A (human) (UniProt P49662).
T1 sequence: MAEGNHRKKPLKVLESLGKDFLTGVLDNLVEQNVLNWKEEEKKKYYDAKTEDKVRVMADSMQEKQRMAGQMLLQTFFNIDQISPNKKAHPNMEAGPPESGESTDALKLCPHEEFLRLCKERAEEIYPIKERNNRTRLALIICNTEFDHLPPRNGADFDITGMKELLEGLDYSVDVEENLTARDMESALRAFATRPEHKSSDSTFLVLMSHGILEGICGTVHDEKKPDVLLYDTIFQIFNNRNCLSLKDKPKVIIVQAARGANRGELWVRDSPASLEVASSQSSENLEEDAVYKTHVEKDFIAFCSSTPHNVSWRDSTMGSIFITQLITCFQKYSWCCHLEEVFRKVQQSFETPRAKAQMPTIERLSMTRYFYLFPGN
The assay can be described thus: co-IP.

B1: Flag-GSDMD^L192D (protein, UniProt P57764 1-484)
chain: MGSAFERVVRRVVQELDHGGEFIPVTSLQSSTGFQPYCLVVRKPSSSWFWKPRYKCVNLSIKDILEPDAAEPDVQRGRSFHFYDAMDGQIQGSVELAAPGQAKIAGGAAVSDSSSTSMNVYSLSVDPNTWQTLLHERHLRQPEHKVLQQLRSRGDNVYVVTEVLQTQKEVEVTRTHKREGSGRFSLPGATCDQGEGQGHLSQKKTVTIPSGSTLAFRVAQLVIDSDLDVLLFPDKKQRTFQPPATGHKRSTSEGAWPQLPSGLSMMRCLHNFLTDGVPAEGAFTEDFQGLRAEVETISKELELLDRELCQLLLEGLEGVLRDQLALRALEEALEQGQSLGPVEPLDGPAGAVLECLVLSSGMLVPELAIPVVYLLGALTMLSETQHKLLAEALESQTLLGPLELVGSLLEQSAPWQERSTMSLPPGLLGNSWGEGAPAWVLLDECGLELGEDTPHVCWEPQAQGRMCALYASLALLSGLSQEPH
In the case of B1, the binding entry was “binds”.
